No constants are given. Whether binding was seen depends on the method and setting. In cells and extracts the contact can be indirect. A yes stands for co-enrichment or nearness to the bait. Other partners may have been found. Where a sequence is shown, tags or fusion partners need not be part of it.
Biological target: T1, MUT-16::GFP::3xFLAG (C. elegans) (UniProt O62011)
T1 sequence: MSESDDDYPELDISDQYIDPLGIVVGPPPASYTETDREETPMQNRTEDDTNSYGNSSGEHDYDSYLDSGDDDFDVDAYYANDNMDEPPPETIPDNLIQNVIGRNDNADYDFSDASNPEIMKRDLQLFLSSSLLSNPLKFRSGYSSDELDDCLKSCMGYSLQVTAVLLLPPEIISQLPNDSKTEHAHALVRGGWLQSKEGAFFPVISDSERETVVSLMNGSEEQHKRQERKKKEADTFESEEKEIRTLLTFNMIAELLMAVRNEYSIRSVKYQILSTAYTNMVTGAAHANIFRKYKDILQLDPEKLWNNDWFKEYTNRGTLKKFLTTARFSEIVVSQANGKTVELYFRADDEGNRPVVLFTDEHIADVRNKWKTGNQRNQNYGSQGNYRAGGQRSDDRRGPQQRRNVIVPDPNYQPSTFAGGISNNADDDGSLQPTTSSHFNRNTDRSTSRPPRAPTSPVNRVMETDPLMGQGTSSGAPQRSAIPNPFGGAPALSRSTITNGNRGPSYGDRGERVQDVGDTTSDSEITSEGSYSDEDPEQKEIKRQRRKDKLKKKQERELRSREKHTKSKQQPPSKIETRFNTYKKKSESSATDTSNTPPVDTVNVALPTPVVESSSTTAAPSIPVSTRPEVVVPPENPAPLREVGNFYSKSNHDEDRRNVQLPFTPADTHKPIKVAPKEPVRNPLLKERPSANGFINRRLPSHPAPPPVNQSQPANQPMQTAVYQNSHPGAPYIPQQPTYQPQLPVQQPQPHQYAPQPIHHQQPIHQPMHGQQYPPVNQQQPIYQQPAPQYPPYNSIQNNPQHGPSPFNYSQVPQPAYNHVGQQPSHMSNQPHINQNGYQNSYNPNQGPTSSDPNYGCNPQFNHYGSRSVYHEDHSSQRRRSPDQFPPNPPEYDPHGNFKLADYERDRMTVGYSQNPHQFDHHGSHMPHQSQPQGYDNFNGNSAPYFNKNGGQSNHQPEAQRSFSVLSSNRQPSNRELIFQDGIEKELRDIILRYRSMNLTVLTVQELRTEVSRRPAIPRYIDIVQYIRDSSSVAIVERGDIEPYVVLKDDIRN
Experiment: affinity purification with mass spectrometry; FLAG or GFP immunoprecipitation (anti-GFP and anti-FLAG affinity matrix) from wild-type and MUT-16::GFP::FLAG lysates, ~500,000 synchronized adult C. elegans for each sample

Sequences of proteins named here, by UniProt entry; tags and fusion partners are left off. A change or cut given only in a name is not applied to a line headed by its entry.
UniProt Q9NA28: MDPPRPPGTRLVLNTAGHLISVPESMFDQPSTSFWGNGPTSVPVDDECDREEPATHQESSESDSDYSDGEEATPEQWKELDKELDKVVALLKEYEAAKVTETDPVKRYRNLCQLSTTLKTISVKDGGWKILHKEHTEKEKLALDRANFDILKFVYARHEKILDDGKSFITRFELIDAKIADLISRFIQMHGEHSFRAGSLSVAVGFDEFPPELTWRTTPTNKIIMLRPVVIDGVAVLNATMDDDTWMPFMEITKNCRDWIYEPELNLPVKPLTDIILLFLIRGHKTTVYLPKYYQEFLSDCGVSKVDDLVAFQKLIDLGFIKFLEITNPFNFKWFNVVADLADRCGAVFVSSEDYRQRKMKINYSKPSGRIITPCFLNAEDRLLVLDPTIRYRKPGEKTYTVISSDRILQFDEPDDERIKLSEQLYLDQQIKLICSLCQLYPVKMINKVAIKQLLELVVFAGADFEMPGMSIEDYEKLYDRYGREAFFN

Question: With NYN-2 (from UniProt Q9NA28) as the substance, how does the binding read?
Answer: The binding was “binds”.

From publication PMC6072111
